Test results published in patent publication US5939387A, “Method of treating insulin resistance” (Eli Lilly and Company, priority 1996, dated 1999).

Tested on: Zucker Diabetic Fatty (ZDF/Gmi-fa/fa) male rats
Assay: ZDF Male Rat Assay
Assay type: in vivo
Details: 6 to 14 weeks of age
Excerpt: A growth hormone releasing agent is continuously administered to Zucker diabetic male rats subcutaneously by use of an "Alzet" mini osmotic pump. The treatment was started at approximately 6 weeks of age and continued for approximately 6-8 weeks. The experiment was designed to allow the study of changes in the typical plasma glucose and insulin level profiles with the progression of the diabetic disease state.
Zucker Diabetic Fatty (ZDF/Gmi™-fa/fa) male rats were obtained from Genetic Models Inc. (Indianapolis, Ind.). The rats were maintained on Purina Formula 5008 rat chow (Purina Mills, Inc., St. Louis, Mo.) and housed in a light controlled room of alternating 12 hour cycles of light and dark. Rats were singly housed and given free access to food and water. At 5 weeks of age, an oral glucose tolerance test (OGTT: 16 hr fast, oral glucose concentration at 2.5 grams/kg body weight; Butler dextrose solution 50%, lot # 3342, Ft. Collins, Colo.; time points at 0, 30, 60, and 120 minutes) was given to each rat and their plasma assayed for glucose and insulin levels. At 6 weeks of age Alzet minipumps, containing a 1.5 inch polyethylene tube extensions (Model 2001, lot # 040401, 1.0 μl/hr, 7 days; Alza Corporation, Palo Alto, Calif.) were implanted subcutaneously. Animals were anesthetized with isoflurane at approximately 2-3% in oxygen. Each rat was shaved and a Povidone Iodine scrub was used at the site of implantation. A small incision was made above and just posterior to the shoulder. A small pocket was made and the pump placed in so the delivery port was away from the incision. The incision was then closed with wound clips and the rat observed and kept warm until awake. At the end of 7 days the pumps were removed from the rat and a new pump implanted subcutaneously as previously described. Pumps contained vehicle (PBS) or a growth hormone releasing agent (8 rats/group).
The GH releasing agent was prepared at concentrations of 625 and 62.5 μg/mL and loaded into Alzet pumps using sterile techniques. Body weight and food consumption were monitored once a week. Rats were bled from the tail for plasma glucose, insulin, and growth hormone levels weekly. One week prior to sacrificing the rats, an I.P. injection of tetracycline was given to each rat and then again the day before sacrificing (20 mg/mL; 0.5 mL/animal) to determine bone growth.
Assays: Plasma glucose concentrations were determined by the glucose hexokinase method (IL Test GLucose, lot # I1040502; Instrumentation Laboratory Company, Lexington, Mass.) with a model 2000 Monarch (Instrumentation Laboratory Company, Lexington, Mass.). Insulin was determined with a Coat-a-Count kit (Diagnostic Products Corporation, Los Angeles, Calif.) using a rat insulin standard (Lilly Research Laboratories, Indianapolis, Ind.). Glucagon was assayed with a double antibody procedure using guinea pig anti-glucagon (Catalog no. 1032; Linco Research, St. Louis, Mo.), goat anti-guinea pig (lot # T67-7GZ-237); Lilly Research Laboratories, Indianapolis, Ind.) and ^125 I-glucagon (DuPont New England Nuclear, Wilmington, Del.). Growth hormone was assayed using rat growth hormone standard (purchased from Parlow, Torrance Calif.; rGH-RP-2, lot AFP-3190B), anti rGH (purchased from Parlow, Torrance Calif.; rGH-s-r, lot AFP411S), ^125 I-rGH (Corning-Hazelton, Vienna, Va.) and protein A IGSL100 (Enzyme Center, Malden, Mass.).

What does the source list for “p-methyl hippuroyl Leu(27) (1-44)OH hGHRH (YADAIFTNSYRKVLGQLSARKLLQDILSRQQGESNQERGARARL) [GHRH Analog, functional analog of GHRH disclosed in EP 511 003, agent capable of stimulating growth hormone release]”?
Heart weight (0.001 μg/min infusion): 1.44 g; Liver weight (0.001 μg/min infusion): 22.21 g; Spleen weight (0.001 μg/min infusion): 0.8 g; Thymus weight (0.001 μg/min infusion): 0.86 g; Heart weight (0.01 μg/min infusion): 1.69 g; Liver weight (0.01 μg/min infusion): 24.79 g; Spleen weight (0.01 μg/min infusion): 1.18 g; Thymus weight (0.01 μg/min infusion): 0.99 g
